In article PMC7217479:
No constants are given. Whether binding was seen depends on the method and setting. In cells and extracts the contact can be indirect. Some results given as binding are weak or reduced against the parent protein; the word gives no strength.

Amino acid sequences for entries named in this document (tags omitted). A change or cut given only in a name is not applied to a line headed by its entry.
UniProt Q969H0: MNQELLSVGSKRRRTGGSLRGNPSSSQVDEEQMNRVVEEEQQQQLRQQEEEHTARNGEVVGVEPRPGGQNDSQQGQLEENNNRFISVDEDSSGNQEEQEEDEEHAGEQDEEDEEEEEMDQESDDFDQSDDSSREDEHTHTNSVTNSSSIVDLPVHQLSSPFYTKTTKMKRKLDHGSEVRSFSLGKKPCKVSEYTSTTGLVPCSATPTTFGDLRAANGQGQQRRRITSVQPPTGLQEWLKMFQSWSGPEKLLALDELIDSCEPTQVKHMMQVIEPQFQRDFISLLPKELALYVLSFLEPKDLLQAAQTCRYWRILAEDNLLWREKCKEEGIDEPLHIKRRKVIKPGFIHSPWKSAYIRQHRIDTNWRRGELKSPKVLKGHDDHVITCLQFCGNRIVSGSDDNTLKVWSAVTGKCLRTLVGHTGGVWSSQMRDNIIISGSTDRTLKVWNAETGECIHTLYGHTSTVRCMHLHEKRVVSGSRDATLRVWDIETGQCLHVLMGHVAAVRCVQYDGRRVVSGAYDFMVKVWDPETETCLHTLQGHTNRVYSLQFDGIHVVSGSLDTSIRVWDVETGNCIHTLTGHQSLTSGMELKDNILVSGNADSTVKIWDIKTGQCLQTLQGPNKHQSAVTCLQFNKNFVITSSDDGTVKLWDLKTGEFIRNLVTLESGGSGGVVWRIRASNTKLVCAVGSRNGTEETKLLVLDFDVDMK
UniProt Q2GI62: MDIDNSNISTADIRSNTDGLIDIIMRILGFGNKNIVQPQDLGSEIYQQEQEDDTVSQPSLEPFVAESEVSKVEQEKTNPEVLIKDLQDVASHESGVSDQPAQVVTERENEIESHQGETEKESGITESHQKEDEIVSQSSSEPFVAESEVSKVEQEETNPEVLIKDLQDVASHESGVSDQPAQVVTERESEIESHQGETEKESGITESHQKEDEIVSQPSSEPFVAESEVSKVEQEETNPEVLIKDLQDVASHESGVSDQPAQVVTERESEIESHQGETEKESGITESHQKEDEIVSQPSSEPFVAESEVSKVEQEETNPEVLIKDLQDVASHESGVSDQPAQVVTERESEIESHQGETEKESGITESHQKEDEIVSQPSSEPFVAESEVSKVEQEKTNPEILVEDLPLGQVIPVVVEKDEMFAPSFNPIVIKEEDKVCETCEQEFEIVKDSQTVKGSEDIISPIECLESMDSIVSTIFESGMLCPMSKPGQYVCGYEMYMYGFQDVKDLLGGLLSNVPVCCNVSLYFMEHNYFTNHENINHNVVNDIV

Columns and labels:
[1] = target: F-BOX and WD domain repeating-containing 7 (FBW7) (human (endogenous in THP-1)) (UniProt Q969H0); assay: co-IP; whole cell lysates of E. chaffeensis-infected THP-1 cells harvested at 24, 48 and 72 hpi (uninfected controls); anti-TRP120 or anti-FBW7 antibody, protein A/G beads; Western immunoblot with anti-FBW7 or anti-TRP120
[2] = target: Ehrlichia chaffeensis TRP120 effector (E. chaffeensis (Arkansas strain)) (UniProt Q2GI62); assay: as above

Substance	binding [1]	binding [2]
Ehrlichia chaffeensis TRP120 effector (from UniProt Q2GI62 1-548)	binds	
F-BOX and WD domain repeating-containing 7 (FBW7) (from UniProt Q969H0-1 1-707)		binds
